Experiment in all cases: log2 fold change, soluble protein after heating vs DMSO (PISA); higher = thermal stabilisation; K562 lysate, 10 uM; active = over 0.2 and 3.5 SD of the protein, either way, in both replicates (recomputed)
Compound in assay [1]: NCC(=O)Nc1ccc(-n2nc(C(F)(F)F)cc2-c2ccc3c(ccc4ccccc43)c2)cc1
An outline of the steps:
(§1)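 K562 pellets were dounce-homogenised in PBS pH 7.4 with 1 mM MgCl2, and the crude extract at 1 mg/mL protein was treated with 10 μM compound for 30 min. Aliquots were heated for 3 min across 48°C-58°C, pooled, and brought to 0.5% NP-40 at 4°C; soluble protein was the supernatant after 21,000xg for 90 min. Soluble protein was quantified by TMTpro 16plex LC-MS/MS with channel sums equalised, and reported as log2 fold change in thermal stability against DMSO controls, with values from duplicates.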

Protein sequences, listed by entry. Tags and fused reporters are not part of them. Lines headed by an entry give the natural chain unless they say otherwise; changes in a name come on top.
UniProt Q16762: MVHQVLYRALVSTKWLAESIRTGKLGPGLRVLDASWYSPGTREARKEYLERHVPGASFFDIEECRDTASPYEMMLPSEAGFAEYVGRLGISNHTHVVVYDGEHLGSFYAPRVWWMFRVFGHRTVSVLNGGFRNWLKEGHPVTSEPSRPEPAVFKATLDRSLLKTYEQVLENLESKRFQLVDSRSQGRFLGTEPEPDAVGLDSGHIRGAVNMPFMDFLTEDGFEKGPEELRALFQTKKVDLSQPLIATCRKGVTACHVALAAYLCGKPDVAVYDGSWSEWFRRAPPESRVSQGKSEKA
UniProt Q8IZ69: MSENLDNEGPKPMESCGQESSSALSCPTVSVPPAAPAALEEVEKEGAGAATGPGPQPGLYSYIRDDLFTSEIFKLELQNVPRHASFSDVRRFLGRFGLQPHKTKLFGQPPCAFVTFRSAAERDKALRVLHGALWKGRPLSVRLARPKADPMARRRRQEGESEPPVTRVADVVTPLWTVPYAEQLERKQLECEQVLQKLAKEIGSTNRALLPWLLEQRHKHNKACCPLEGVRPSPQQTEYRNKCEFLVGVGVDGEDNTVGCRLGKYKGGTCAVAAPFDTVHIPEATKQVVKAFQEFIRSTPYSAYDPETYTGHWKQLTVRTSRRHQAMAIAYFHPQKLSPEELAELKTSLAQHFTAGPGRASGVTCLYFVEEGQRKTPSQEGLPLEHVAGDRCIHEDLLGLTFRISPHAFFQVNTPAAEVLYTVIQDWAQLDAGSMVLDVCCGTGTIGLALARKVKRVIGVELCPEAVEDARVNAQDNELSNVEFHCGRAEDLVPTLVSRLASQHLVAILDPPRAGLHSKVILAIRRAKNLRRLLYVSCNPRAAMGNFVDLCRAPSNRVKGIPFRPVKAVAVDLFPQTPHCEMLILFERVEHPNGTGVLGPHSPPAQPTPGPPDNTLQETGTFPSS
UniProt Q86TN4: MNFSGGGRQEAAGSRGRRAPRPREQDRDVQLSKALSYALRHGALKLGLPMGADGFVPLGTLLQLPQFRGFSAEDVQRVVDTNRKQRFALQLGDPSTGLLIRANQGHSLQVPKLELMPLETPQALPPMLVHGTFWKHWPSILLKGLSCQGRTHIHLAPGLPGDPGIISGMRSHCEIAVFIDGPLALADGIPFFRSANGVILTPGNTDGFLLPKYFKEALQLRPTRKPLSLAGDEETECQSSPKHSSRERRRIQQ
UniProt Q9NUP7: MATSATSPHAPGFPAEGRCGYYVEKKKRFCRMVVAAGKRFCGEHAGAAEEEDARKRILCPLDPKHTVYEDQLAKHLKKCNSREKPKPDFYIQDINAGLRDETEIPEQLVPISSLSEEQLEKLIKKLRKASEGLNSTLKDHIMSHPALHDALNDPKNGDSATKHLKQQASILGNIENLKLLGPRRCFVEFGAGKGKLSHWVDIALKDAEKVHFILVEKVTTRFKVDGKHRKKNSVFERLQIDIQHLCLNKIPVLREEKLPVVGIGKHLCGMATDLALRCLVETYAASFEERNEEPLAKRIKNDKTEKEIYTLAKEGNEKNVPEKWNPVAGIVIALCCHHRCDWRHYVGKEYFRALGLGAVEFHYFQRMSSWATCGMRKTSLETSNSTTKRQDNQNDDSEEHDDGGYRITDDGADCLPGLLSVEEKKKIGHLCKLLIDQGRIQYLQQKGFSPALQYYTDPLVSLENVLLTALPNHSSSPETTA
UniProt Q9H3H1: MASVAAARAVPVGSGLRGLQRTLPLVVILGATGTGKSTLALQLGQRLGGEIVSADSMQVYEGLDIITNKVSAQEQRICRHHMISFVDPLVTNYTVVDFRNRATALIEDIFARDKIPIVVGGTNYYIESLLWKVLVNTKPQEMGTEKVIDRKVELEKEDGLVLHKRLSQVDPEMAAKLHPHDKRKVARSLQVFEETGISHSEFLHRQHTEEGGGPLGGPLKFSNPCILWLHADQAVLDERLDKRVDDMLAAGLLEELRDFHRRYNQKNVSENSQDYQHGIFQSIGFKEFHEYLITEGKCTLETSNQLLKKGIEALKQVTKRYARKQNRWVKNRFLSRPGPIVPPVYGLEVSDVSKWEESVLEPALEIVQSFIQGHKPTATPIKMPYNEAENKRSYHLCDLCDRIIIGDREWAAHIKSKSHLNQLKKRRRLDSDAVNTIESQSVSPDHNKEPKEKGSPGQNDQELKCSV
UniProt Q14258, whole entry, looked up: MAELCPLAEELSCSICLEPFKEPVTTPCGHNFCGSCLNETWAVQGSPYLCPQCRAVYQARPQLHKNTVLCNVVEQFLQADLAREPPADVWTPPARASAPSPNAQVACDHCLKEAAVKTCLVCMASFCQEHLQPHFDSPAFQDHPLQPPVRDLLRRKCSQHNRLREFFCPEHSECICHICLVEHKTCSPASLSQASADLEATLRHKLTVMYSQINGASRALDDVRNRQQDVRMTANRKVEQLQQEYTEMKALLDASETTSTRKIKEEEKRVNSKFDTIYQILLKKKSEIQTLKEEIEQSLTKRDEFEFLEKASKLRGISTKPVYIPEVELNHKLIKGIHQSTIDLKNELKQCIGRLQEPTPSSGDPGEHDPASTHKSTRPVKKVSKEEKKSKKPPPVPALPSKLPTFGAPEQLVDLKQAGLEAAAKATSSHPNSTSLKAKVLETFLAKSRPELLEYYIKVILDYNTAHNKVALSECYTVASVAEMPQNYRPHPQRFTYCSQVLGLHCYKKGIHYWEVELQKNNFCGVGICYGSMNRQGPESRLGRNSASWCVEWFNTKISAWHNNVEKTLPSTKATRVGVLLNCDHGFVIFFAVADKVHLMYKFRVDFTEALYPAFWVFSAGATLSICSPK
UniProt Q92574: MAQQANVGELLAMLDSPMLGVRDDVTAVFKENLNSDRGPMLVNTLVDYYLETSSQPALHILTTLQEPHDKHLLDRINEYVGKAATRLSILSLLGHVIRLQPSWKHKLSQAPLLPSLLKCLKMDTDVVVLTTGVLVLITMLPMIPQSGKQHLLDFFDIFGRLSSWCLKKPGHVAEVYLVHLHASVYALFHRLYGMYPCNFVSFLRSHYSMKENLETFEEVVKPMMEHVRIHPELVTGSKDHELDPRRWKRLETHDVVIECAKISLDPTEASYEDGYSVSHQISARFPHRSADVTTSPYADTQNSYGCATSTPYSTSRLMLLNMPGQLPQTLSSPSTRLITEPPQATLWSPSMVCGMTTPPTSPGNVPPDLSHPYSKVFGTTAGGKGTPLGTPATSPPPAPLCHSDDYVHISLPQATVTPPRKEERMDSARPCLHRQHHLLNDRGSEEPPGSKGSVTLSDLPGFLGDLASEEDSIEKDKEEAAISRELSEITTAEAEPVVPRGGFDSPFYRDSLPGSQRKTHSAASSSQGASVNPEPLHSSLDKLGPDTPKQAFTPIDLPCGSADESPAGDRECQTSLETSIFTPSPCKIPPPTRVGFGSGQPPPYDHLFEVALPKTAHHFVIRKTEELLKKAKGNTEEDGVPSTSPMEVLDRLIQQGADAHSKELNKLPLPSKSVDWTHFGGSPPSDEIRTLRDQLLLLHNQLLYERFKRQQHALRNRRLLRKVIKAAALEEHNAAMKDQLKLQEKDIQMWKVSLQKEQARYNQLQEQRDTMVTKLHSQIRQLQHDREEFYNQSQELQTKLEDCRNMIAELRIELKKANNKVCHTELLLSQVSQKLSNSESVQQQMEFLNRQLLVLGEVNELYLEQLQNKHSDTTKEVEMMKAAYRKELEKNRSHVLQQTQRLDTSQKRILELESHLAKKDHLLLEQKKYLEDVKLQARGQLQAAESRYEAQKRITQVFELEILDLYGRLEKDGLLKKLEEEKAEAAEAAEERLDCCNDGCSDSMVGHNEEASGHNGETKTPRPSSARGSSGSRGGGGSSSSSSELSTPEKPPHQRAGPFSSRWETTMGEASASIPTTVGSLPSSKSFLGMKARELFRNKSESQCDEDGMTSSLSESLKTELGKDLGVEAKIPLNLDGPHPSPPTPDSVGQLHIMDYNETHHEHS
UniProt Q15642: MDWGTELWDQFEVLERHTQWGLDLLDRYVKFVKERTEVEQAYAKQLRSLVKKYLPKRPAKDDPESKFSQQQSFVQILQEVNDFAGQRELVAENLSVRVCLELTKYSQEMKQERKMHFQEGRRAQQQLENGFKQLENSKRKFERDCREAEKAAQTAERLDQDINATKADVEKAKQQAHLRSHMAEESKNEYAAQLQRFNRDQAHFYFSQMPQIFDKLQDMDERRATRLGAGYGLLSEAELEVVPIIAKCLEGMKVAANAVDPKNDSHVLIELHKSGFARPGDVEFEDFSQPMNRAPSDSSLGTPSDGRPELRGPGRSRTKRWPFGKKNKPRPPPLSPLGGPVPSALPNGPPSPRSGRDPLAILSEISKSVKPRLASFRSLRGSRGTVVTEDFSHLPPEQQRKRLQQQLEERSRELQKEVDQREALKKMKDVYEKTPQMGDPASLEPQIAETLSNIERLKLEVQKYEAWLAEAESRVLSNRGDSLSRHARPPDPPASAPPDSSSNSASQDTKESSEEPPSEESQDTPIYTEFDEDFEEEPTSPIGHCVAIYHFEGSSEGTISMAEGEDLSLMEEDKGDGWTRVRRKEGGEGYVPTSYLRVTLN
UniProt Q9Y5U2: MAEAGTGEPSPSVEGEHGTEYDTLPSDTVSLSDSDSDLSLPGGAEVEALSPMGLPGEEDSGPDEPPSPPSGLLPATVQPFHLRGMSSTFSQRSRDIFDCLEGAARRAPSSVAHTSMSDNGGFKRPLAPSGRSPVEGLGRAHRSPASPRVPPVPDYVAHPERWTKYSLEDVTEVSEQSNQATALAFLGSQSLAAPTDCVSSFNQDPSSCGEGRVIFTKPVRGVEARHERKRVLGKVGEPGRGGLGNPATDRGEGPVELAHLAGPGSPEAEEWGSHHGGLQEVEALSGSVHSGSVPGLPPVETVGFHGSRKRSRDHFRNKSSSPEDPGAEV
UniProt Q8TEL6: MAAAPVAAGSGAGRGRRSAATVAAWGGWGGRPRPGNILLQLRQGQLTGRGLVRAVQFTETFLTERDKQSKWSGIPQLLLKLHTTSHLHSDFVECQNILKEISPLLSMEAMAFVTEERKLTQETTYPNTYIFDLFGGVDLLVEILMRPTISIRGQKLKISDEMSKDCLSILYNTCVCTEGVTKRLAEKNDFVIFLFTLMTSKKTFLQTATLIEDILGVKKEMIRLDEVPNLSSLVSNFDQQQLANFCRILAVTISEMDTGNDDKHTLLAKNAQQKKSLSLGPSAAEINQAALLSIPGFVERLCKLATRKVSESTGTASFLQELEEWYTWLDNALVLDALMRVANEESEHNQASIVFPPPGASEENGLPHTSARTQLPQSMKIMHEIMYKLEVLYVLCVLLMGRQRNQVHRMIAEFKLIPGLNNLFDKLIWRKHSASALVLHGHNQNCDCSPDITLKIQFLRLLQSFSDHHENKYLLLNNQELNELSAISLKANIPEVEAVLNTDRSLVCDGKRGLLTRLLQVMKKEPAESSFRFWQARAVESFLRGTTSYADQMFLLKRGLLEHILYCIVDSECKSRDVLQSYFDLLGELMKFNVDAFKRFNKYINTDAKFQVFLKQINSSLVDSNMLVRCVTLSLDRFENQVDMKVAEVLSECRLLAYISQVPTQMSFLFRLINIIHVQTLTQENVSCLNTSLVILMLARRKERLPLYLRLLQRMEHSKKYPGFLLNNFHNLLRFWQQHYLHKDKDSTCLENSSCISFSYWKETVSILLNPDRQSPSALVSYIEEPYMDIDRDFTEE
UniProt A5PLN9: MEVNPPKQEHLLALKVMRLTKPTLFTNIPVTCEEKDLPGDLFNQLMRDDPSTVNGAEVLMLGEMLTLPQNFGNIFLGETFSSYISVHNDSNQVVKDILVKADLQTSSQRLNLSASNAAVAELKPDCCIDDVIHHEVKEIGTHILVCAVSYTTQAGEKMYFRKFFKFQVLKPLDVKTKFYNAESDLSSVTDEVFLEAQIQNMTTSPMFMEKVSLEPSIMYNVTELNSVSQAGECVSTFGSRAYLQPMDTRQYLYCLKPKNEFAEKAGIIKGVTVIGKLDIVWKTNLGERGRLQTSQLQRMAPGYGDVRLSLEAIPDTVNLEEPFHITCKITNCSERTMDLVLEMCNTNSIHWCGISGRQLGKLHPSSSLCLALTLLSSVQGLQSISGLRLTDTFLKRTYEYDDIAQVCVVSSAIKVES
UniProt Q8NCE0: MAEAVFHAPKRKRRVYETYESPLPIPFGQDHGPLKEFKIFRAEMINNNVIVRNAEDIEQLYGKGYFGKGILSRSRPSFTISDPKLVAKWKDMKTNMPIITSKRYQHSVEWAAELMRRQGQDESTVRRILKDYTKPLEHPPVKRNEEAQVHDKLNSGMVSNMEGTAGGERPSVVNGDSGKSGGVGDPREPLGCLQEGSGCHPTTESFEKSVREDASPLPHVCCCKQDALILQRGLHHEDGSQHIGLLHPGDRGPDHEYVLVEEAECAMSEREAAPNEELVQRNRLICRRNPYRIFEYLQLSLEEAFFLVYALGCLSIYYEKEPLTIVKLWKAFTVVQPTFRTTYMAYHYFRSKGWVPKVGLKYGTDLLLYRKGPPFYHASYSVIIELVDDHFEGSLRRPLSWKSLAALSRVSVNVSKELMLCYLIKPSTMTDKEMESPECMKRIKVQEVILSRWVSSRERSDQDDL

Compound in assay [2]: O=C(CCCCCCC(=O)Nc1ccccc1)NO [vorinostat]
Summed up: as §1

Compound in assay [3]: O=C(O)c1ccc2c(c1)nc(Nc1cccc(Cl)c1)c1ccncc12 [silmitasertib]
An outline of the steps:
as §1

Compound in assay [4]: O=C1NC(=O)C(c2cnc3ccccn23)=C1c1cn2c3c(cc(F)cc13)CN(C(=O)N1CCCCC1)CC2
An outline of the steps: as §1

Compound in assay [5]: c1cn2cc(-c3ccc4cn[nH]c4c3)nc(Nc3ccc(N4CCOCC4)cc3)c2n1 [entospletinib]
An outline of the steps: as §1

Some of the results follow.

Regarding TST (UniProt Q16762), the log2 fold change in assay [1] was inactive: 0.002; in assay [2], inactive: -0.124; in assay [3] it was inactive: -0.018; in assay [4], inactive: -0.036; in assay [5], inactive: 0.016.
For TSEN54 (UniProt Q7Z6J9) the same measures were inactive: -0.003, inactive: -0.193, inactive: -0.021, inactive: 0.009 and inactive: 0.033.
The corresponding values for TRMT2A (UniProt Q8IZ69) are inactive: -0.012, active: -0.366, inactive: 0.034, inactive: -0.007 and inactive: 0.002.
Turning to TTC39B (UniProt Q5VTQ0), the log2 fold change in assay [1] was inactive: 0.508; in assay [2], inactive: 0.125; in assay [3], inactive: 0.068.
On to TRPT1 isoform 4 (UniProt Q86TN4), for which the log2 fold change in assay [1] is inactive: 0.016; in assay [2], inactive: 0.055; in assay [3] it was inactive: -0.037; in assay [4], inactive: 0.051.
On to TSEN15, A0A2U3TZM3, for which the log2 fold change in assay [1] is inactive: 0.046.
For the target TRAFD1 (UniProt O14545), the log2 fold change in assay [1] was inactive: -0.021; in assay [2] it was inactive: 0.029; in assay [3], inactive: 0.029; in assay [4], inactive: -0.01; in assay [5] it was inactive: -0.035.
For TTC37 (UniProt Q6PGP7), the log2 fold change in assay [1] was inactive: 0.136; in assay [2] it was inactive: 0.153; in assay [3] it was inactive: 0.03; in assay [4] it was inactive: 0.046.
As for TRMT13 (UniProt Q9NUP7), the log2 fold change was inactive: -0.077 in assay [1]; inactive: -0.112 in assay [2]; inactive: 0.024 in assay [3]; inactive: -0.051 in assay [4]; inactive: 0.024 in assay [5].
In the case of TRIT1 (UniProt Q9H3H1), the log2 fold change in assay [1] is inactive: 0.05; in assay [2] it was inactive: -0.14; in assay [3], inactive: -0.002; in assay [4], inactive: -0.108; in assay [5], inactive: 0.04.
Consider TRAF3IP2 (UniProt O43734), for which the log2 fold change is inactive: -0.283 in assay [1], inactive: -0.49 in assay [2] and inactive: 0.101 in assay [3].
Regarding TTLL12 (UniProt V9GY16), the log2 fold change is inactive: 0.115 in assay [1]; inactive: 0.076 in assay [2]; inactive: -0.298 in assay [3]; inactive: 0.035 in assay [4]; inactive: 0.103 in assay [5].
For TRIM33 (UniProt H0Y612), the log2 fold change in assay [1] was inactive: -0.039; in assay [2], active: -0.335; in assay [3], inactive: 0.061; in assay [4] it was inactive: 0.03; in assay [5], inactive: 0.084.
The corresponding values for TRIM58 (UniProt Q8NG06) are inactive: 0.011, inactive: -0.157, inactive: 0.03, inactive: 0.005 and inactive: -0.029.
For TRMT5 (UniProt Q32P41) the same measures were inactive: -0.027, inactive: -0.244, inactive: 0.124, inactive: -0.016 and inactive: -0.015.
The corresponding values for TRAPPC8 (UniProt Q9Y2L5) are inactive: 0.036, inactive: -0.124, inactive: 0, inactive: -0.059 and inactive: 0.005.
In the case of TRIM25 (UniProt Q14258), the log2 fold change in assay [1] was inactive: 0.013; in assay [2] it was active: -0.59; in assay [3] it was inactive: -0.046; in assay [4], inactive: -0.018; in assay [5], inactive: 0.011.
In the case of TSC1 (UniProt Q92574), the log2 fold change was inactive: 0.055 in assay [1]; inactive: -0.044 in assay [2]; inactive: -0.03 in assay [3]; inactive: -0.001 in assay [4]; inactive: -0.033 in assay [5].
The corresponding values for TRMU (UniProt O75648) are inactive: -0.003, inactive: -0.104, inactive: 0.043, inactive: 0.006 and inactive: 0.031.
The corresponding values for TRIP10 isoform 2 (UniProt Q15642) are inactive: -0.11, inactive: 0.016, inactive: -0.141, inactive: -0.159 and inactive: 0.113.
TRMT1L (UniProt Q7Z2T5): the log2 fold change in assay [1] was inactive: -0.014; in assay [2], inactive: -0.175; in assay [3] it was inactive: 0.028; in assay [4], inactive: -0.03; in assay [5], inactive: 0.016.
The corresponding values for TSSC4 (UniProt Q9Y5U2) are inactive: 0.039, inactive: -0.118, inactive: -0.021, inactive: 0.03 and inactive: -0.043.
With TTC9C (UniProt Q8N5M4), the log2 fold change is inactive: 0.036 in assay [1]; inactive: -0.018 in assay [2]; inactive: 0 in assay [3]; inactive: -0.007 in assay [4]; inactive: 0.005 in assay [5].
Regarding TRPC4AP (UniProt Q8TEL6), the log2 fold change in assay [1] is inactive: 0.082; in assay [2], inactive: -0.11; in assay [3], inactive: 0.011; in assay [4] it was inactive: 0.011; in assay [5], inactive: -0.021.
Consider TSPO (UniProt P30536), for which the log2 fold change was inactive: -0.087 in assay [1]; inactive: -0.078 in assay [2]; inactive: 0.117 in assay [3]; inactive: -0.017 in assay [4]; inactive: 0.052 in assay [5].
For TTL (UniProt Q8NG68) the same measures were inactive: -0.027, active: -0.376, inactive: 0.021, inactive: 0.057 and inactive: 0.138.
As for TRAPPC13 isoform 4 (UniProt A5PLN9), the log2 fold change in assay [1] was inactive: -0.099; in assay [2] it was inactive: -0.163; in assay [3], inactive: 0.075; in assay [4] it was inactive: -0.003; in assay [5], inactive: -0.013.
For TSEN2 (UniProt Q8NCE0) the same measures were inactive: -0.022, inactive: -0.046, inactive: -0.053, inactive: -0.02 and inactive: 0.047.

The values are drawn from the supplement of paper PMC10849652.
